In the supplement of paper PMC10849652:
This is one part of the list.

The chains behind the UniProt entries cited, without tags or fusion partners. Where a name states a change or a piece, a line headed by the entry shows the natural chain unless it says otherwise.
UniProt Q14596: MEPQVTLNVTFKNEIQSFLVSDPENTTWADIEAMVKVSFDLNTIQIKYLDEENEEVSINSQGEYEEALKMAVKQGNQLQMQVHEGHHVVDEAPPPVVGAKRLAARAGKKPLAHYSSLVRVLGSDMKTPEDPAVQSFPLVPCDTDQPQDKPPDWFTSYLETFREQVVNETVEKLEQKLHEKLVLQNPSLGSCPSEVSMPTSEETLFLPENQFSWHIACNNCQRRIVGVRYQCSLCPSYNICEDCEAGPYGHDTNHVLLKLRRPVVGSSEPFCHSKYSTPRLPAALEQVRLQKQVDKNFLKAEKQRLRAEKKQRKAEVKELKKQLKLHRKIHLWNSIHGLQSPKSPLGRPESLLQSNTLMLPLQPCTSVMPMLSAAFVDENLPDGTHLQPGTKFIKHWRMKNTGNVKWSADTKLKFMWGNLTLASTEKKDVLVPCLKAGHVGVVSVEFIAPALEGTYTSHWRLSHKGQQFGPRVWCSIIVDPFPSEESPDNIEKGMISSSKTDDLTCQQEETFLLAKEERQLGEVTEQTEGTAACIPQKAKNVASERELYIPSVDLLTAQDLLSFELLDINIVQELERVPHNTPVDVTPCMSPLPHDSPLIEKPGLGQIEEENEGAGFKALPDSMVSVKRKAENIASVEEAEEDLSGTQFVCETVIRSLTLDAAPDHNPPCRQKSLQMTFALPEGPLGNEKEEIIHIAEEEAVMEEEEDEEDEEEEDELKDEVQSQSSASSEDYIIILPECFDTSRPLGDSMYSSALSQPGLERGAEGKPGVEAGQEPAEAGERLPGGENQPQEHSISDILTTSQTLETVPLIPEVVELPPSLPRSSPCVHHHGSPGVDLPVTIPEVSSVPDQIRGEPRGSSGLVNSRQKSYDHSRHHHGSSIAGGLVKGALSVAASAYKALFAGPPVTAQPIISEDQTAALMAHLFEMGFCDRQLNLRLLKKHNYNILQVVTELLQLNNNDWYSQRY
UniProt P49321, whole entry, looked up: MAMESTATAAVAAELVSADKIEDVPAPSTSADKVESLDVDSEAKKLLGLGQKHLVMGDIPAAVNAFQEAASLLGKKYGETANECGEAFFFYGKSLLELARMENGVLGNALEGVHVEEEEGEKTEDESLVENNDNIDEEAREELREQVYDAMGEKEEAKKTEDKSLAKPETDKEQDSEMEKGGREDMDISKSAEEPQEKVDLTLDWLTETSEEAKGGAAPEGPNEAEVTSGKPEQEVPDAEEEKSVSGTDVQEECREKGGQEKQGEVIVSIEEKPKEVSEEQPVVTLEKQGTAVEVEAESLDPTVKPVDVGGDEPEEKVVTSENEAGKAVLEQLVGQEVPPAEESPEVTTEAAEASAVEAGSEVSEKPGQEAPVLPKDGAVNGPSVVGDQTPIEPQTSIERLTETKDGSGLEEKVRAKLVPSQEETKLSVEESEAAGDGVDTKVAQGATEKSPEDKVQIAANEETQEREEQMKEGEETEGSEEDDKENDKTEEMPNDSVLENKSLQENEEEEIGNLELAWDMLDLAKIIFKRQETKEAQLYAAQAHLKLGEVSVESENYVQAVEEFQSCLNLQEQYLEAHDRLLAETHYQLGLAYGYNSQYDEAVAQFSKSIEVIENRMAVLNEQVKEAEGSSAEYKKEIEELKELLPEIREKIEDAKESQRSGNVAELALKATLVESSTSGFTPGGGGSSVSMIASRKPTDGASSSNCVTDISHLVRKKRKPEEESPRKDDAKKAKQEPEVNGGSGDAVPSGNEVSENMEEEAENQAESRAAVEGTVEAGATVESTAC
UniProt P84157: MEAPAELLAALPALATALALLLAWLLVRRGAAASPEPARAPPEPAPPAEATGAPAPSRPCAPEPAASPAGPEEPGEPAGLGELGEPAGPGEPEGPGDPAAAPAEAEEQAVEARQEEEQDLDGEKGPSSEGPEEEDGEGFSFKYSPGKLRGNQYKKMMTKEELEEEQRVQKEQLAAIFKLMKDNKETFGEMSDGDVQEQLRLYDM
UniProt Q15746, whole entry, looked up: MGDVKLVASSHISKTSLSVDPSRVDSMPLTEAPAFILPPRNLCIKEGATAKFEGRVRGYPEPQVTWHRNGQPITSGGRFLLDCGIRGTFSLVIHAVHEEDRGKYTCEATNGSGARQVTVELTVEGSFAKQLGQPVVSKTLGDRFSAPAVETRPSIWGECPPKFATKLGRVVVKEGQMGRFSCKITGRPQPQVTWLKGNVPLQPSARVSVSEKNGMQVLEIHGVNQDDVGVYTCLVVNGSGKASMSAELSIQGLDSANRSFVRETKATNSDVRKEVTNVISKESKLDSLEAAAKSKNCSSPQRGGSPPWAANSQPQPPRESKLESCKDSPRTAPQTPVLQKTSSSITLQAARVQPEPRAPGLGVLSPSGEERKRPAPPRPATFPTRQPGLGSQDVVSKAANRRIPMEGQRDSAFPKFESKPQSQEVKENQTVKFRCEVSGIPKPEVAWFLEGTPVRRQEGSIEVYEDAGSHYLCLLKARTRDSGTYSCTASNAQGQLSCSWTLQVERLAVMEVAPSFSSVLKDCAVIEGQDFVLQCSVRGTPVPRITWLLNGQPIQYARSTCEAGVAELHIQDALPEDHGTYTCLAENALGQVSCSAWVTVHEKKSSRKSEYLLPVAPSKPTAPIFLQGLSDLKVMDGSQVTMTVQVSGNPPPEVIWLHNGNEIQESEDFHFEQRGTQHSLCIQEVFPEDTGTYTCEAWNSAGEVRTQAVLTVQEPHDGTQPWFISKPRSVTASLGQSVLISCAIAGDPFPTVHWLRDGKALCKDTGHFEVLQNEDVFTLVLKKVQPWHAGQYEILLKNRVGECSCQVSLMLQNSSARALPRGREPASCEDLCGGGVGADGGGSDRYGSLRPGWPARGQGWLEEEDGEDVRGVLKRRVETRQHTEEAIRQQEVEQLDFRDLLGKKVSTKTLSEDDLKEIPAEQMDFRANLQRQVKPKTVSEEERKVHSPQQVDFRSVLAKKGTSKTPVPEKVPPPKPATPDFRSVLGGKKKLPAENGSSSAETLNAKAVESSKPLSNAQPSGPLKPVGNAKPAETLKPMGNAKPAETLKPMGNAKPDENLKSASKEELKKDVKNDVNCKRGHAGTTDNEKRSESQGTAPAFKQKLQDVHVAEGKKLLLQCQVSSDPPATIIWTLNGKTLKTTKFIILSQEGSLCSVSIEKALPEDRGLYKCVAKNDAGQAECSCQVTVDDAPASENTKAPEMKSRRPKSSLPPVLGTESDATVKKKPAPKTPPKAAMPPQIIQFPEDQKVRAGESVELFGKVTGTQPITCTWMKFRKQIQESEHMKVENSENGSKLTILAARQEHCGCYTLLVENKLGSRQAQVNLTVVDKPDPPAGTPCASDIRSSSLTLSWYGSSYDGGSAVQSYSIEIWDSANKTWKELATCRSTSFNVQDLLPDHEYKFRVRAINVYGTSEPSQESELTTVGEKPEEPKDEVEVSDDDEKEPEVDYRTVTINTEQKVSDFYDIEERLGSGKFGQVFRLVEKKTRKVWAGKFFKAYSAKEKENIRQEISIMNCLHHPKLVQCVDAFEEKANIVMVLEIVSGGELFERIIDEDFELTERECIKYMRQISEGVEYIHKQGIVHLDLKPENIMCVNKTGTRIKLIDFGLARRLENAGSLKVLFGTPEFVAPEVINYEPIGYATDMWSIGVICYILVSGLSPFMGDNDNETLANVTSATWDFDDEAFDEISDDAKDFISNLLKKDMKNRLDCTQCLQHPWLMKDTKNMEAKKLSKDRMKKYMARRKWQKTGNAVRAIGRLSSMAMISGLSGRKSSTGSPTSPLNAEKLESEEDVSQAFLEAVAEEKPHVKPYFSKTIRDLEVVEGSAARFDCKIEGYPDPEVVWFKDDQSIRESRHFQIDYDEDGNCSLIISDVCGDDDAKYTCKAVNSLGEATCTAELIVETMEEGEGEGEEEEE
UniProt Q9HD67, whole entry, looked up: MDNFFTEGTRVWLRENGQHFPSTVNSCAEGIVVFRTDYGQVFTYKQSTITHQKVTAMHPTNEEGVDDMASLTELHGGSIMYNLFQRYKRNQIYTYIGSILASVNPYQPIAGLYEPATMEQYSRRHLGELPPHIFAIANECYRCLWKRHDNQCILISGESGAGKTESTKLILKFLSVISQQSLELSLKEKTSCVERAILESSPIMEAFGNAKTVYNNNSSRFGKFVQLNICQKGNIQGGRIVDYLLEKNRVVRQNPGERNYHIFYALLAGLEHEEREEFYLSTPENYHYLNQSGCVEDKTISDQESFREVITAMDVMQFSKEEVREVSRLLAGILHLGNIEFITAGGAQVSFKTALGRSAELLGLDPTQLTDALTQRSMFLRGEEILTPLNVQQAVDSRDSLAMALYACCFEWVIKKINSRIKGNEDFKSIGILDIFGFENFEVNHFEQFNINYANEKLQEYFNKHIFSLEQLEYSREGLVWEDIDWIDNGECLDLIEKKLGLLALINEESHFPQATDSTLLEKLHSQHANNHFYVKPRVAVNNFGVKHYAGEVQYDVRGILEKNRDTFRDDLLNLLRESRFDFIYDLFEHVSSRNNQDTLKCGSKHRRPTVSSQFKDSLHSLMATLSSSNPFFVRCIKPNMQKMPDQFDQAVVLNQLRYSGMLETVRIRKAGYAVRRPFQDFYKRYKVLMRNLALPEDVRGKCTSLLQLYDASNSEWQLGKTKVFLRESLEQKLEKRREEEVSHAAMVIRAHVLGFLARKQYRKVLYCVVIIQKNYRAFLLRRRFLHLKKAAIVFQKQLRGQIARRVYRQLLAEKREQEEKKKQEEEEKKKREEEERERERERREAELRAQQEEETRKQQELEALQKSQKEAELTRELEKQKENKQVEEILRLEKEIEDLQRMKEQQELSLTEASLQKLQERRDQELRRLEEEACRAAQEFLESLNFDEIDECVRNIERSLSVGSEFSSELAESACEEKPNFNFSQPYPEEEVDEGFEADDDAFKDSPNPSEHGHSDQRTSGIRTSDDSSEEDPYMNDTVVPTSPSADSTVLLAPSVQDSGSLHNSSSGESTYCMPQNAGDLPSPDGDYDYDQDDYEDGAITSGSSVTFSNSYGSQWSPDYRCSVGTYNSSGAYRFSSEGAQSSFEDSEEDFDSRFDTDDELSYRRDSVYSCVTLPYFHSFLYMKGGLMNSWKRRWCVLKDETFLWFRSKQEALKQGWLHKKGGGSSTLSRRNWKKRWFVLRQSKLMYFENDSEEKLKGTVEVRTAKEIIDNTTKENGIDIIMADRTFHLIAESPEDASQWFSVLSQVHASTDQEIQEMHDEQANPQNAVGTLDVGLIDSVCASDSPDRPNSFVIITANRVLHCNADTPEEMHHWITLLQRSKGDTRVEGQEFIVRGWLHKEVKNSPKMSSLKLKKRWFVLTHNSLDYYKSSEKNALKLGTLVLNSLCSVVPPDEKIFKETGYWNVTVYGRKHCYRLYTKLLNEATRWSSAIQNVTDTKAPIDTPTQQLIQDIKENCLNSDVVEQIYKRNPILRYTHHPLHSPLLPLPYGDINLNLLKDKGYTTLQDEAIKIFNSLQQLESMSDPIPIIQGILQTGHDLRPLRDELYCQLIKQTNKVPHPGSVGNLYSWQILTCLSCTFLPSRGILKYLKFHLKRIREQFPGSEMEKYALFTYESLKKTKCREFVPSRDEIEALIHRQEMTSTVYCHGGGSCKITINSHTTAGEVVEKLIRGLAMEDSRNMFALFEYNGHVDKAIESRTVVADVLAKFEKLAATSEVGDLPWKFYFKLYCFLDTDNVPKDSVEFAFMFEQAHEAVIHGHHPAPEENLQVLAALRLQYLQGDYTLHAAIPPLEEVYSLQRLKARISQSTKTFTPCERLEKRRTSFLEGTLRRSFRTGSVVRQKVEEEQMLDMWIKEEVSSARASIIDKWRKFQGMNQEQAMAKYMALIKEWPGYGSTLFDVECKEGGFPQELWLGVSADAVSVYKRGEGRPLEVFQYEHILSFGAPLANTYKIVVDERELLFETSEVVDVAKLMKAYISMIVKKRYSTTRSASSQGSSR
UniProt Q99836, whole entry, looked up: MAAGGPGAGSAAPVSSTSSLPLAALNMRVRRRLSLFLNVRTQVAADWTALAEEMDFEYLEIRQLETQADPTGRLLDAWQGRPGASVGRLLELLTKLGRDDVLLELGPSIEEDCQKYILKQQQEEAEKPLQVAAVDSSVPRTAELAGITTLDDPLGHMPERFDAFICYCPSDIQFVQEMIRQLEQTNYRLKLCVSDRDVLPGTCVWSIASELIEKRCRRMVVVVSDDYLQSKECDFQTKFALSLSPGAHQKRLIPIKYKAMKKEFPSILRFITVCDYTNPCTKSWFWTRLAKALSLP

Experiments:
Experiment in all cases: log2 fold change, soluble protein after heating vs DMSO (PISA); higher = thermal stabilisation; K562 lysate, 10 uM; active = over 0.2 and 3.5 SD of the protein, either way, in both replicates (recomputed)
[1] = compound: CCCS(=O)(=O)Nc1ccc(F)c(C(=O)c2c[nH]c3ncc(-c4ccc(Cl)cc4)cc23)c1F [vemurafenib]
Method in brief: (§1)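 A 30 min treatment with 10 μM compound was applied to crude K562 extract at 1 mg/mL protein in PBS pH 7.4 with 1 mM MgCl2. Heating for 3 min spanned 48°C-58°C, after which aliquots were pooled, adjusted to 0.5% NP-40 at 4°C and spun at 21,000xg for 90 min. TMTpro 16plex LC-MS/MS of the supernatant, with channel sums equalised, gave values recorded as log-two fold change in thermal stability against solvent controls, from duplicates.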

[2] = compound: CCCS(=O)(=O)Nc1ccc(F)c(C(=O)c2c[nH]c3ncc(Cl)cc23)c1F
Method in brief: as §1

[3] = compound: CCN(CCCOc1ccc2c(Nc3cc(CC(=O)Nc4cccc(F)c4)[nH]n3)ncnc2c1)CCOP(=O)(O)O [barasertib]
Method in brief: as §1

[4] = compound: CC[C@@H]1C(=O)N(C)c2cnc(Nc3ccc(C(=O)NC4CCN(C)CC4)cc3OC)nc2N1C1CCCC1
Method in brief: as §1

[5] = compound: CC[C@@H]1C(=O)N(C)c2cnc(Nc3ccc(C(=O)N[C@H]4CC[C@H](N5CCN(CC6CC6)CC5)CC4)cc3OC)nc2N1C(C)C [volasertib]
Method in brief: as §1

[6] = compound: CCn1c(C(=O)N(C2CC2)C2CC2)cc2c3c(ncn3C)c(Nc3cc(C)n(C)n3)nc21
Method in brief: as §1

[7] = compound: CCn1cc(-c2ccnc3[nH]c(-c4cccc(CN(C)C)c4)cc23)c(-c2ccc(NC(=O)N(C)C)cc2)n1
Method in brief: as §1

[8] = compound: CN1CCC(CNc2ccc3ncc(-c4cccc(OC(F)(F)F)c4)n3n2)CC1
Method in brief: as §1

[9] = compound: CN1CCN(CCOc2cc(OC3CCOCC3)c3c(Nc4c(Cl)ccc5c4OCO5)ncnc3c2)CC1 [saracatinib]
Method in brief: as §1

[10] = compound: CN1CCN(c2nc(C3=C(c4c[nH]c5ccccc45)C(=O)NC3=O)c3ccccc3n2)CC1 [sotrastaurin]
Method in brief: as §1

[11] = compound: CN1CC[C@H](c2c(O)cc(O)c3c(=O)cc(-c4ccccc4Cl)oc23)[C@H](O)C1 [alvocidib]
Method in brief: as §1

[12] = compound: CN1CCc2c(c3ccccc3n2Cc2ccc(C(=O)NO)cc2)C1 [Tubastatin A]
Method in brief: as §1

[13] = compound: CNC(=O)C1=CC=CC=C1NC2=NC(=NC=C2Cl)NC3=C(C=C(C=C3)N4CCOCC4)OC
Method in brief: as §1

[14] = compound: CNC(=O)c1ccc(Nc2ncc(C(F)(F)F)c(NCc3nccnc3N(C)S(C)(=O)=O)n2)cc1 [defactinib]
Method in brief: as §1

[15] = compound: CNc1nc(-c2ccc3c(N)n[nH]c3c2)cc(N2C[C@@H](C(=O)NC3CCCCC3)CC[C@H]2C)n1
Method in brief: as §1

[16] = compound: COC(=O)N[C@@H](C)CNc1nccc(-c2cn(C(C)C)nc2-c2cc(Cl)cc(NS(C)(=O)=O)c2F)n1 [encorafenib]
Method in brief: as §1

[17] = compound: COC(=O)[C@H](CCSC)NC(=O)C1=C(C=C(C=C1)NC[C@H](CS)N)C2=CC=CC=C2
Method in brief: as §1

[18] = compound: COc1cc2nc(-c3cc(F)ccc3O)nc(N[C@@H]3CNC[C@H]3C(C)(C)O)c2cc1OC
Method in brief: as §1

[19] = compound: COc1cc(Nc2ncc3c(n2)-c2ccc(Cl)cc2C(c2c(F)cccc2OC)=NC3)ccc1C(=O)O [alisertib]
Method in brief: as §1

[20] = compound: COc1cc2ncnc(Nc3ccc(F)c(Cl)c3)c2cc1OCCCN1CCOCC1 [gefitinib]
Method in brief: as §1

Target	log2 fold change [1]	log2 fold change [2]	log2 fold change [3]	log2 fold change [4]	log2 fold change [5]	log2 fold change [6]	log2 fold change [7]	log2 fold change [8]	log2 fold change [9]	log2 fold change [10]	log2 fold change [11]	log2 fold change [12]	log2 fold change [13]	log2 fold change [14]	log2 fold change [15]	log2 fold change [16]	log2 fold change [17]	log2 fold change [18]	log2 fold change [19]	log2 fold change [20]
NBR1 (UniProt Q14596)	inactive: -0.033	inactive: 0.025	inactive: 0.003	inactive: -0.158	inactive: 0.064	inactive: 0.054	inactive: 0.225	inactive: -0.041	inactive: 0.076	inactive: 0.071	inactive: 0.081	inactive: -0.066	inactive: 0.133	inactive: 0.011	inactive: -0.034	inactive: 0.106	inactive: -0.167	inactive: -0.039	–	–
NASP (UniProt P49321)	inactive: -0.004	inactive: -0.015	inactive: -0.019	inactive: 0.015	inactive: 0.027	inactive: -0.01	inactive: -0.019	inactive: -0.02	inactive: -0.001	inactive: -0.014	inactive: 0.031	inactive: 0.035	inactive: -0.029	inactive: -0.03	inactive: -0.009	inactive: -0.005	inactive: -0.034	inactive: 0.012	inactive: 0	inactive: 0.009
MXRA7 (UniProt P84157)	inactive: -0.134	inactive: 0.094	–	inactive: -0.006	inactive: 0.054	inactive: 0.049	inactive: -0.182	inactive: 0.167	inactive: 0.02	inactive: -0.064	inactive: -0.002	inactive: -0.056	inactive: -0.052	inactive: -0.239	inactive: 0.131	inactive: 0.051	inactive: -0.028	inactive: -0.009	inactive: -0.19	inactive: 0.177
MYLK (UniProt Q15746)	inactive: -0.254	inactive: -0.022	inactive: -0.097	active: -0.675	inactive: -0.053	–	inactive: -0.169	inactive: 0.014	–	inactive: -0.084	inactive: 0.097	–	–	inactive: 0.128	–	inactive: 0.154	inactive: -0.008	inactive: -0.109	inactive: -0.001	inactive: 0.071
NCBP1 (UniProt Q09161)	inactive: -0.004	inactive: 0.023	inactive: 0.014	inactive: -0.038	inactive: -0.016	inactive: -0.004	inactive: -0.093	inactive: 0.035	inactive: 0.003	inactive: 0.04	inactive: -0.009	inactive: -0.076	inactive: -0.013	inactive: -0.013	inactive: -0.022	inactive: 0.021	inactive: 0.019	inactive: 0.002	inactive: 0.014	inactive: 0.003
MYO10 (UniProt Q9HD67)	inactive: 0.483	–	inactive: 0.171	–	–	inactive: -0.185	active: 1.26	inactive: -0.381	–	inactive: -0.287	inactive: 0.048	inactive: 0.211	inactive: -0.012	inactive: -0.106	–	–	–	–	inactive: 0.021	inactive: 0.087
MYD88 isoform 6 (UniProt Q99836)	inactive: -0.031	inactive: 0.01	inactive: -0.002	inactive: -0.042	inactive: -0.075	inactive: 0.022	inactive: -0.009	inactive: -0.013	inactive: 0.009	inactive: 0.05	inactive: 0	inactive: -0.216	inactive: -0.006	inactive: 0.013	inactive: 0.001	inactive: 0.003	inactive: -0.003	inactive: -0.005	inactive: 0.021	inactive: -0.039
